In patent US20260015405A1:
These are yes or no findings as the source states them, for the method shown. Some results given as binding are weak or reduced against the parent protein; the word gives no strength. Where a sequence is shown, tags or fusion partners need not be part of it.

By UniProt entry, the sequences of proteins in these tests, tags left out. Residues count along the entry.
UniProt P25942, residues 21-193: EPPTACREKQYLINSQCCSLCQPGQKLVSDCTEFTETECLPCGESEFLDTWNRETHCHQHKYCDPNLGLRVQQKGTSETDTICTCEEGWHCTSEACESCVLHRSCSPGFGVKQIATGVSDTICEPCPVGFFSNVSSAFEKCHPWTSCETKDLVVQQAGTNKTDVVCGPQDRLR

Biological target: CD40-Fc (immobilized recombinant human CD40) (human) (UniProt P25942)
Assay: ELISA, CD40-Fc coated, HeLa supernatant, detection with non-competitive anti-CD40L

B1: construct encoded by pTG19965: heterologous signal peptide upstream of human SPD (A21 to G257)-CD40L (N119 to L261), FLAG tag in C-terminus (ligand)
chain: AEMKTYSHRTMPSACTLVMCSSVESGLPGRDGRDGREGPRGEKGDPGLPGAAGQAGMPGQAGPVGPKGDNGSVGEPGPKGDTGPSGPPGPPGVPGPAGREGPLGKQGNIGPQGKPGPKGEAGPKGEVGAPGMQGSAGARGLAGPKGERGVPGERGVPGNTGAAGSAGAMGPQGSPGARGPPGLKGDKGIPGDKGAKGESGLPDVASLRQQVEALQGQVQHLQAAFSQYKKVENPQIAAHVISEASSKTTSVLQWAEKGYYTMSNNLVTLENGKQLTVKRQGLYYIYAQVTFCSNREASSQAPFIASLCLKSPGRFERILLRAANTHSSAKPCGQQSIHLGGVFELQPGASVFVNVTDPSQVSHGTGFTSFGLLKL
- binding: binds
